Consider three molecules from PMC7327492.

One assay concerns the target Recombinant B56α. Put plainly: ITC; Auto-iTC200, 25°C, 50 mM sodium phosphate pH 7.5, 200 mM NaCl, 0.5 mM TCEP; inhibitors in the syringe and B56α in the cell (direct) or vice versa (reverse), both globally fitted to a 1:1 model; both purified. (In ITC the heat of successive injections is recorded.)
The next assay concerns the target YFP-B56α. The experiment in a line: co-IP; YFP-B56α transfected into HeLa-FRT cells stably expressing mCherry B56 inhibitor or control inhibitor, mitotic cells, low salt lysis buffer, GFP-trap beads, Western blotting (and label-free MS).

These are yes or no findings as the source states them, for the method shown. Binding can be weak; no strength is given. Where a sequence is shown, tags or fusion partners need not be part of it. For part of these data: Binding seen in cells or lysates may run through a third protein.

B1: His-tagged 4x(LxxIxE) B56 inhibitor (designed binder)
chain: TGSTGSTGSTGSTGSLPRSSTLPTIHEEEELSLCTGSTGSTGSTGSTGSLPRSSTLPTIHEEEELSLCTGSTGSTGSTGSTGSLPRSSTLPTIHEEEELSLCTGSTGSTGSTGSTGSLPRSSTLPTIHEEEELSLC
Regarding B1, the binding result with Recombinant B56α is “binds”.

B2: mCherry-tagged 4x(LxxIxE) B56 inhibitor (designed binder)
chain: TGSTGSTGSTGSTGSLPRSSTLPTIHEEEELSLCTGSTGSTGSTGSTGSLPRSSTLPTIHEEEELSLCTGSTGSTGSTGSTGSLPRSSTLPTIHEEEELSLCTGSTGSTGSTGSTGSLPRSSTLPTIHEEEELSLC
For B2, in the assay with YFP-B56α, the binding entry was “binds”.

B3: Kif4A (protein, UniProt O95239 1-1232)
chain: MKEEVKGIPVRVALRCRPLVPKEISEGCQMCLSFVPGEPQVVVGTDKSFTYDFVFDPSTEQEEVFNTAVAPLIKGVFKGYNATVLAYGQTGSGKTYSMGGAYTAEQENEPTVGVIPRVIQLLFKEIDKKSDFEFTLKVSYLEIYNEEILDLLCPSREKAQINIREDPKEGIKIVGLTEKTVLVALDTVSCLEQGNNSRTVASTAMNSQSSRSHAIFTISLEQRKKSDKNSSFRSKLHLVDLAGSERQKKTKAEGDRLKEGININRGLLCLGNVISALGDDKKGGFVPYRDSKLTRLLQDSLGGNSHTLMIACVSPADSNLEETLNTLRYADRARKIKNKPIVNIDPQTAELNHLKQQVQQLQVLLLQAHGGTLPGSITVEPSENLQSLMEKNQSLVEENEKLSRGLSEAAGQTAQMLERIILTEQANEKMNAKLEELRQHAACKLDLQKLVETLEDQELKENVEIICNLQQLITQLSDETVACMAAAIDTAVEQEAQVETSPETSRSSDAFTTQHALRQAQMSKELVELNKALALKEALARKMTQNDSQLQPIQYQYQDNIKELELEVINLQKEKEELVLELQTAKKDANQAKLSERRRKRLQELEGQIADLKKKLNEQSKLLKLKESTERTVSKLNQEIRMMKNQRVQLMRQMKEDAEKFRQWKQKKDKEVIQLKERDRKRQYELLKLERNFQKQSNVLRRKTEEAAAANKRLKDALQKQREVADKRKETQSRGMEGTAARVKNWLGNEIEVMVSTEEAKRHLNDLLEDRKILAQDVAQLKEKKESGENPPPKLRRRTFSLTEVRGQVSESEDSITKQIESLETEMEFRSAQIADLQQKLLDAESEDRPKQRWENIATILEAKCALKYLIGELVSSKIQVSKLESSLKQSKTSCADMQKMLFEERNHFAEIETELQAELVRMEQQHQEKVLYLLSQLQQSQMAEKQLEESVSEKEQQLLSTLKCQDEELEKMREVCEQNQQLLRENEIIKQKLTLLQVASRQKHLPKDTLLSPDSSFEYVPPKPKPSRVKEKFLEQSMDIEDLKYCSEHSVNEHEDGDGDDDEGDDEEWKPTKLVKVSRKNIQGCSCKGWCGNKQCGCRKQKSDCGVDCCCDPTKCRNRQQGKDSLGTVERTQDSEGSFKLEDPTEVTPGLSFFNPVCATPNSKILKEMCDVEQVLSKKTPPAPSPFDLPELKHVATEYQENKAPGKKKKRALASNTSFFSGCSPIEEEAH
For the molecule B3, the binding result in the assay with YFP-B56α is given as “binds”.
